Data: US20240043530A1 (JIANGSU HENGRUI PHARMACEUTICALS, published 2024)
These are yes or no findings as the source states them, for the method shown. Binding calls can cover weak binding; strength is not graded here.

The chains behind the UniProt entries cited, without tags or fusion partners. Where a name states a change or a piece, a line headed by the entry shows the natural chain unless it says otherwise.
UniProt Q6DKI7: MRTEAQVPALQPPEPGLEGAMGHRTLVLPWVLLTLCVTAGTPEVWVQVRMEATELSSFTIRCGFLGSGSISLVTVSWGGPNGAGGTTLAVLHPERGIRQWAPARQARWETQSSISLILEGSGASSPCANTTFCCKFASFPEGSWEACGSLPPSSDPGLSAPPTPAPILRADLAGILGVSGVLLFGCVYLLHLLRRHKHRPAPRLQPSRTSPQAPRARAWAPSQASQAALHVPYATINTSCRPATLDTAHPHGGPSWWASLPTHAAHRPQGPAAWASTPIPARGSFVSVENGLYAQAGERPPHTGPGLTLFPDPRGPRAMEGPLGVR

Assays:
[1] = biological target: his-tagged human PVRIG recombinant protein (human) (UniProt Q6DKI7); assay: BLI (Fortebio), antibody on Protein A sensor
[2] = biological target: his-tagged human PVRIG recombinant protein (human) (UniProt Q6DKI7); assay: ELISA, plate coated with human PVRIG recombinant protein, HRP anti-human IgG, OD450 (method of Example 4)
[3] = biological target: human PVRIG expressed on the cell surface (human) (UniProt Q6DKI7); assay: flow cytometry on cells overexpressing human PVRIG, labelled anti-human IgG (method of Example 5)

binding [1]: binds | binding [2]: binds | binding [3]: binds
B1: positive antibody Tab5 (antibody, human IgG4 S228P, kappa, F234A L235A, V domains shown)
VH: EVQLVESGGGVVKPGGSLRLSCAASGFTFGTSSMNWVRQAPGKGLEWVAVISFDGTEIHYADSVKGRFTISRDNSKSTVFLQMNSLRPDDTALYYCAKGSGNIYFYSGMDVWGQGTTVTVSS
VL: DIQMTQSPSTLSASVGDRVTITCRAGQSISGWLAWFQQKPGKAPNLLIYETSTLESGVPSRFSGSGSGTEYTLTISSLQPDDFATYYCQQYYSYPLTFGQGTKVEIKR
